We go through 32 molecules from paper PMC8523568.

The chains behind the UniProt entries cited, without tags or fusion partners. Residues count along the entry.
UniProt Q9BQE3: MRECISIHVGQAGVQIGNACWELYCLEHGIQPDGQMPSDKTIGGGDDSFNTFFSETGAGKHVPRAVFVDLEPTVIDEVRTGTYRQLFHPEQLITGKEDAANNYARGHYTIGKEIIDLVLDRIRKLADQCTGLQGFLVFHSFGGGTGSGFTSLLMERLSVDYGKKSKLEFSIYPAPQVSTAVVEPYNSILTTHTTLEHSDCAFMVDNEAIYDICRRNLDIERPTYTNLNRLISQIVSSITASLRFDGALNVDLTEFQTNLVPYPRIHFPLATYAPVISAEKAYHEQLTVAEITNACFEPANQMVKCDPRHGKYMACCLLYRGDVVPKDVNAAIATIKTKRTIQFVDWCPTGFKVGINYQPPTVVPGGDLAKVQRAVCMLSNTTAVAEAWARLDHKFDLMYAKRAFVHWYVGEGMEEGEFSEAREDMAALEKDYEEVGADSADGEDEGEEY
UniProt O00483: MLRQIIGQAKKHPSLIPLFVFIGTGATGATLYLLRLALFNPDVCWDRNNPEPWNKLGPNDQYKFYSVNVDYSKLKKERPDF
UniProt Q3ZCQ8, residues 45-353: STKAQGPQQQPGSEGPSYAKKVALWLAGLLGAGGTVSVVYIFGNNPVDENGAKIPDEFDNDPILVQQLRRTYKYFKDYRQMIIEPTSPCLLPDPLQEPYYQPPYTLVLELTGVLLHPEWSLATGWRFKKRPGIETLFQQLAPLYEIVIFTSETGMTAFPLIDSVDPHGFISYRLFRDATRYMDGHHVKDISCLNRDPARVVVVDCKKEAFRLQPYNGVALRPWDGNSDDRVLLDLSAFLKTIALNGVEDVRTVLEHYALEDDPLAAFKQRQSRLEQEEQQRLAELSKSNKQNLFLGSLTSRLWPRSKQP
UniProt Q9NP72: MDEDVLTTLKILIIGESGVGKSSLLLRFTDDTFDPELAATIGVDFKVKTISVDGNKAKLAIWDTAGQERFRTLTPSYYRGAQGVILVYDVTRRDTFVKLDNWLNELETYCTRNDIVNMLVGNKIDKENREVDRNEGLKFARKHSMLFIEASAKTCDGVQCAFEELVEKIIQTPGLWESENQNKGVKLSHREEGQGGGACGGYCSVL
UniProt P25705, residues 44-553: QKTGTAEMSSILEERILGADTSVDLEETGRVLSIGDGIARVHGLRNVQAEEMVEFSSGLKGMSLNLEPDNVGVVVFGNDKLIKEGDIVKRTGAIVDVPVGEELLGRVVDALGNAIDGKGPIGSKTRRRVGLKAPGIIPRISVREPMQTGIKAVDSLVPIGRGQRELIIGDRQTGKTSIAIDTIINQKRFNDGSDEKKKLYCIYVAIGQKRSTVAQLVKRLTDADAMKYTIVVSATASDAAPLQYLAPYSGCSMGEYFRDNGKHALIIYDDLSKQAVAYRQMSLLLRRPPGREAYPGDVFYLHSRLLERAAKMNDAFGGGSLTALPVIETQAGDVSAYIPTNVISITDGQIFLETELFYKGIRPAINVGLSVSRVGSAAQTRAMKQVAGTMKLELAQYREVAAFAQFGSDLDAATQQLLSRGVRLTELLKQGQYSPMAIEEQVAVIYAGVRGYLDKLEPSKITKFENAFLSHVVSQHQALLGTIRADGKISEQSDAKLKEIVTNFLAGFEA
UniProt Q00610: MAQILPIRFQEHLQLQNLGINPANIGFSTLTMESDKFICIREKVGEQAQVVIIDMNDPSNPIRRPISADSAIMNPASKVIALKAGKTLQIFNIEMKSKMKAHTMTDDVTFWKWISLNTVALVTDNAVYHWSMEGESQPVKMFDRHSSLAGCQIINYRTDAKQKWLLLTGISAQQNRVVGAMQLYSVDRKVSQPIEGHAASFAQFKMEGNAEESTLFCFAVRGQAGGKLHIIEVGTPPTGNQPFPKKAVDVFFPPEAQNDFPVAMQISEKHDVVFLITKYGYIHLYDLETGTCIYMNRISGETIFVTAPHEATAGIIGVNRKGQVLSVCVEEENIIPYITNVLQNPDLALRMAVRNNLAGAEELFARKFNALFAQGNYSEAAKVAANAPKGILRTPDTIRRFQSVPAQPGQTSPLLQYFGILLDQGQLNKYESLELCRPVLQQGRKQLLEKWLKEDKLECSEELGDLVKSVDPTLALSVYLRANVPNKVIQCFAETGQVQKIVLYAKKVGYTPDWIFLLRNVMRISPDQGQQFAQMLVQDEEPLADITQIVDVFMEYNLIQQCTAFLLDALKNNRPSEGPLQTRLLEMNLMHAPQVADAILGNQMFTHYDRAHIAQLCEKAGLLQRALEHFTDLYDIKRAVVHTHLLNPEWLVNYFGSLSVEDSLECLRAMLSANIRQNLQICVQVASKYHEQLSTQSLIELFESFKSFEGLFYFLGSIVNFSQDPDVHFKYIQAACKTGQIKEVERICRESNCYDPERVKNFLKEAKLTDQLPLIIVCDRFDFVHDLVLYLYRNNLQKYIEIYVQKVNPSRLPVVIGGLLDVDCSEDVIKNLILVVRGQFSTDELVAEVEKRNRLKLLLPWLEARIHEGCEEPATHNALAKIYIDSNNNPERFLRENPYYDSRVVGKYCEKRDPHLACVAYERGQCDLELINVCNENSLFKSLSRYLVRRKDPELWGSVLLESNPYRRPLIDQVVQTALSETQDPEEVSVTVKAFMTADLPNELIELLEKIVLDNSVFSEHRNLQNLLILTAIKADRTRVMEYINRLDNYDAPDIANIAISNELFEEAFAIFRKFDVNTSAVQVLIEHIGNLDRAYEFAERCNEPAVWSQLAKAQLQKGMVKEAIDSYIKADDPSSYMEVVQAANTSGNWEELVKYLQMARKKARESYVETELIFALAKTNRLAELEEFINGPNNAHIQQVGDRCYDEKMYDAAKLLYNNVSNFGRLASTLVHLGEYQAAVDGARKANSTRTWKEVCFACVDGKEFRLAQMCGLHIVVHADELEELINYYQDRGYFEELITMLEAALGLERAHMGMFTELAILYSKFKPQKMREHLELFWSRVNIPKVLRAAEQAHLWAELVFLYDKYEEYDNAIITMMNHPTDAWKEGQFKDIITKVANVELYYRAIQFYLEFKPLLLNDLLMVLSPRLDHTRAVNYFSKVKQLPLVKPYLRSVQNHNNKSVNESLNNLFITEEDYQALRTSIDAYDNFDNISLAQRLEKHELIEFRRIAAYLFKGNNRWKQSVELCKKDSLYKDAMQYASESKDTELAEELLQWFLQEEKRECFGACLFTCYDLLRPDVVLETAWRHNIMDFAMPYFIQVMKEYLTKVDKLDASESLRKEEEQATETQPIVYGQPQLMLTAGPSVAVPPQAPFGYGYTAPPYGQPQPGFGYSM
UniProt P63208: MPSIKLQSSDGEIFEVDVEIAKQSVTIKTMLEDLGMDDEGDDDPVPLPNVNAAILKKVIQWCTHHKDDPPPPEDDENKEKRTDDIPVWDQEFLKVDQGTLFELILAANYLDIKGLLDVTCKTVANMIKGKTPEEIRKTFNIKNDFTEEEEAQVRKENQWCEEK
UniProt Q15311: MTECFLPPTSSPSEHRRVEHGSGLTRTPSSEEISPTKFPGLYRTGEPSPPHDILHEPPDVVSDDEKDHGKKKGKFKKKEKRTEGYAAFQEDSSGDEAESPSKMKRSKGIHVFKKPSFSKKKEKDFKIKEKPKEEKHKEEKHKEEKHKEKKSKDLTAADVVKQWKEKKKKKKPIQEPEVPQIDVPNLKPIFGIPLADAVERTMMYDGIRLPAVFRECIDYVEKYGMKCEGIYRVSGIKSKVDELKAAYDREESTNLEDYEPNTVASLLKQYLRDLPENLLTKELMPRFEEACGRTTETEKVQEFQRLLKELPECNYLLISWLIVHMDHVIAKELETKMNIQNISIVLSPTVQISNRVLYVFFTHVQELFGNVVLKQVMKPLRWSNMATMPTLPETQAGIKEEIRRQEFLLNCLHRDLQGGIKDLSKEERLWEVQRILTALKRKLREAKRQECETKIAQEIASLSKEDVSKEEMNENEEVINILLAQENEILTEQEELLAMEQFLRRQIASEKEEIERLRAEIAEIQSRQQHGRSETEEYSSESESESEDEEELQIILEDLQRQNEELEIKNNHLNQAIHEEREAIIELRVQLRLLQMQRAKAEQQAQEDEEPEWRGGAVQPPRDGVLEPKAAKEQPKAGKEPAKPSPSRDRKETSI
UniProt P63104: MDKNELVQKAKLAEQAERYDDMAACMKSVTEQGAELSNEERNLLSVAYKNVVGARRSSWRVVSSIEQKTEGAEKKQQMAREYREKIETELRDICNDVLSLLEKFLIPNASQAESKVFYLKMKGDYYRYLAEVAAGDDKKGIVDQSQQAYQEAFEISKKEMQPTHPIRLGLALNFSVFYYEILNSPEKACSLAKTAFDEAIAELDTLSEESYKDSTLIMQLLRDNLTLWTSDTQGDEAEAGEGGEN
UniProt P62258: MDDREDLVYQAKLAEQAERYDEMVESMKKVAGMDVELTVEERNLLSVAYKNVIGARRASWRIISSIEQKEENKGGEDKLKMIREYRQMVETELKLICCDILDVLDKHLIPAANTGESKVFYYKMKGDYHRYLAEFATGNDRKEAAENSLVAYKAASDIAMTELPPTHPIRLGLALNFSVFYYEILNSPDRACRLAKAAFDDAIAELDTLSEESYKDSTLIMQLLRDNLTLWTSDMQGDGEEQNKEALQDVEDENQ
UniProt P10809, residues 27-573: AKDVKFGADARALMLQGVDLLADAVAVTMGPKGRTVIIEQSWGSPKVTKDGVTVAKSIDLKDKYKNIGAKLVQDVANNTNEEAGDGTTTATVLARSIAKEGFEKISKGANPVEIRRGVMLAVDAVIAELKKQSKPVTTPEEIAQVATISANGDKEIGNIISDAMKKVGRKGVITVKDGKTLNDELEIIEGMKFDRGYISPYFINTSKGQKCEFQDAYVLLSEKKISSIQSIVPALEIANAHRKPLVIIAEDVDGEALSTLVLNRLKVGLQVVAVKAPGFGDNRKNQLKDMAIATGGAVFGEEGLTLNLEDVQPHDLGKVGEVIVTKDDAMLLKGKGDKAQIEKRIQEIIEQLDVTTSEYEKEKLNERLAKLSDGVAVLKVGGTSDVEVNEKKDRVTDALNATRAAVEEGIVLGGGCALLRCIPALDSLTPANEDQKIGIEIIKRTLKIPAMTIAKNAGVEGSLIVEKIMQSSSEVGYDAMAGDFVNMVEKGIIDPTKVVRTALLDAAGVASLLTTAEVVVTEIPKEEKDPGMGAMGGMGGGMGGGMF
UniProt P68871: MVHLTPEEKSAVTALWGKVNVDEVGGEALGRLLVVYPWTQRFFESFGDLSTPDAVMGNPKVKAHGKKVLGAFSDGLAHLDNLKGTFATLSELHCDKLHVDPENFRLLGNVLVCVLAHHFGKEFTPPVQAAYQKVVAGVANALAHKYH
UniProt P14625, residues 22-803: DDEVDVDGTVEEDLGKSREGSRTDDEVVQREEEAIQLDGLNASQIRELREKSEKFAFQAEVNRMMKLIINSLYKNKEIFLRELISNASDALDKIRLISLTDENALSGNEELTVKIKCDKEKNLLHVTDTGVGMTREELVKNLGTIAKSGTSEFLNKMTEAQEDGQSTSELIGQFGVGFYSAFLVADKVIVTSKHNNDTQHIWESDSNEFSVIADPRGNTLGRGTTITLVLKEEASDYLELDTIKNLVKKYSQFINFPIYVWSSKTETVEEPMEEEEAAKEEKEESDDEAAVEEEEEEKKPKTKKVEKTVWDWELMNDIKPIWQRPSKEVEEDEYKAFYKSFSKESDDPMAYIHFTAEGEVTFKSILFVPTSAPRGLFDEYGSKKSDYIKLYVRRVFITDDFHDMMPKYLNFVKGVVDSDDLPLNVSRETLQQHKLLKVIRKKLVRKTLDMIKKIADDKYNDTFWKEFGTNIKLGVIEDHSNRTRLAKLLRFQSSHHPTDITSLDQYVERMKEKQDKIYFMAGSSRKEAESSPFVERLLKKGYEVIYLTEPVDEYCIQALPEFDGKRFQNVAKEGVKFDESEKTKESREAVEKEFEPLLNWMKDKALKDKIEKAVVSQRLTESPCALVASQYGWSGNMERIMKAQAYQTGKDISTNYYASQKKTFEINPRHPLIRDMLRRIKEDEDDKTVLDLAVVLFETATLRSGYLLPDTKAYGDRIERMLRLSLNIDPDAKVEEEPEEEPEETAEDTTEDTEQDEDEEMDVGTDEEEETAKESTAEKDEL
UniProt Q9UNE7: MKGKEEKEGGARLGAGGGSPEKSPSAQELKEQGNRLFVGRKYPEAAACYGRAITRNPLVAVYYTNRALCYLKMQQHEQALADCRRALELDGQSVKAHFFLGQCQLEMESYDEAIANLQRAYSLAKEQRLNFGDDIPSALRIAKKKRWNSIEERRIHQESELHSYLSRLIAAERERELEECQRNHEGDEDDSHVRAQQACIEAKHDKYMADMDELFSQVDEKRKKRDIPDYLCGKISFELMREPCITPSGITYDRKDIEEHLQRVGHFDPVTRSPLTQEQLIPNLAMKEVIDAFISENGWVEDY
UniProt O95292: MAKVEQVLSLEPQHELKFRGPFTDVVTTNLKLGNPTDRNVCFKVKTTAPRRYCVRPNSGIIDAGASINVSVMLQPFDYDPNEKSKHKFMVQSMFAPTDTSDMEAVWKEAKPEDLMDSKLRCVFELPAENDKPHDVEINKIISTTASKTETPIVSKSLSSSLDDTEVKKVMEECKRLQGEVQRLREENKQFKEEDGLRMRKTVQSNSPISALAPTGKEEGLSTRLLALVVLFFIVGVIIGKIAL

The labels stand for the following.
T1: human CaSR with FLAG-tag (FLAG-hCaSR) (human) (UniProt P41180)
T1 sequence: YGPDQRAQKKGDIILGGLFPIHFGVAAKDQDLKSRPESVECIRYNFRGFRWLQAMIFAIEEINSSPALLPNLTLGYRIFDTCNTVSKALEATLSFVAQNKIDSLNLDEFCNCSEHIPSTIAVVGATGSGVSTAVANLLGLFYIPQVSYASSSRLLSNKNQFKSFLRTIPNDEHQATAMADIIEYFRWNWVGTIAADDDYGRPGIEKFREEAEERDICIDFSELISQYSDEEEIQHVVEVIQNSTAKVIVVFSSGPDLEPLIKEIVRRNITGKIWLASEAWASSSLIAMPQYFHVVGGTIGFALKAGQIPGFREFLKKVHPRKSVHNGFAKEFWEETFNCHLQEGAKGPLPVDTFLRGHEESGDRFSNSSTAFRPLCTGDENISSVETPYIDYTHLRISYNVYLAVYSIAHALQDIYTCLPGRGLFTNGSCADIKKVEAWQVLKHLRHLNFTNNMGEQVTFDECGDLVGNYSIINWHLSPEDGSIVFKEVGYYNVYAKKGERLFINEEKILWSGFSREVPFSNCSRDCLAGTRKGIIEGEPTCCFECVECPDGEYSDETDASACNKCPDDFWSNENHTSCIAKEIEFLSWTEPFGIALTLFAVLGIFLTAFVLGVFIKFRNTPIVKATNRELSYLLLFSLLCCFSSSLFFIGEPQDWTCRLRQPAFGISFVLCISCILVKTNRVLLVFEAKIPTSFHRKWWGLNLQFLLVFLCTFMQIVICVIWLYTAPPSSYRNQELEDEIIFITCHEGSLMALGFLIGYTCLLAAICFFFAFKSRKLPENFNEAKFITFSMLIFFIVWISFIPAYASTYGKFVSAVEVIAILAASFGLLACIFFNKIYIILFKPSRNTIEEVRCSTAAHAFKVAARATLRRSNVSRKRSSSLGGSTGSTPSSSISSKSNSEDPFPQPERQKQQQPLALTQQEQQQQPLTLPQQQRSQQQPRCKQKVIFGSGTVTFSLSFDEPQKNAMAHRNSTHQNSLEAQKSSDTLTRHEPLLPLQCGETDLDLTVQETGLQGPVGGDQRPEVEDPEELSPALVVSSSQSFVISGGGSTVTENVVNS

B1: YWHAQ (14-3-3 θ) (protein, UniProt P27348 1-245)
chain: MEKTELIQKAKLAEQAERYDDMATCMKAVTEQGAELSNEERNLLSVAYKNVVGGRRSAWRVISSIEQKTDTSDKKLQLIKDYREKVESELRSICTTVLELLDKYLIANATNPESKVFYLKMKGDYFRYLAEVACGDDRKQTIDNSQGAYQEAFDISKKEMQPTHPIRLGLALNFSVFYYEILNNPELACTLAKTAFDEAIAELDTLNEDSYKDSTLIMQLLRDNLTLWTSDSAGEECDAAEGAEN
B2: SRPR (protein, UniProt P08240 1-638)
chain: MLDFFTIFSKGGLVLWCFQGVSDSCTGPVNALIRSVLLQERGGNNSFTHEALTLKYKLDNQFELVFVVGFQKILTLTYVDKLIDDVHRLFRDKYRTEIQQQSALSLLNGTFDFQNDFLRLLREAEESSKIRAPTTMKKFEDSEKAKKPVRSMIETRGEKPKEKAKNSKKKGAKKEGSDGPLATSKPVPAEKSGLPVGPENGVELSKEELIRRKREEFIQKHGRGMEKSNKSTKSDAPKEKGKKAPRVWELGGCANKEVLDYSTPTTNGTPEAALSEDINLIRGTGSGGQLQDLDCSSSDDEGAAQNSTKPSATKGTLGGMFGMLKGLVGSKSLSREDMESVLDKMRDHLIAKNVAADIAVQLCESVANKLEGKVMGTFSTVTSTVKQALQESLVQILQPQRRVDMLRDIMDAQRRQRPYVVTFCGVNGVGKSTNLAKISFWLLENGFSVLIAACDTFRAGAVEQLRTHTRRLSALHPPEKHGGRTMVQLFEKGYGKDAAGIAMEAIAFARNQGFDVVLVDTAGRMQDNAPLMTALAKLITVNTPDLVLFVGEALVGNEAVDQLVKFNRALADHSMAQTPRLIDGIVLTKFDTIDDKVGAAISMTYITSKPIVFVGTGQTYCDLRSLNAKAVVAALMKA
B3: WDR6 (protein, UniProt Q9NNW5 1-1121)
chain: MDALEDYVWPRATSELILLPVTGLECVGDRLLAGEGPDVLVYSLDFGGHLRMIKRVQNLLGHYLIHGFRVRPEPNGDLDLEAMVAVFGSKGLRVVKISWGQGHFWELWRSGLWNMSDWIWDARWLEGNIALALGHNSVVLYDPVVGCILQEVPCTDRCTLSSACLIGDAWKELTIVAGAVSNQLLVWYPATALADNKPVAPDRRISGHVGIIFSMSYLESKGLLATASEDRSVRIWKVGDLRVPGGRVQNIGHCFGHSARVWQVKLLENYLISAGEDCVCLVWSHEGEILQAFRGHQGRGIRAIAAHERQAWVITGGDDSGIRLWHLVGRGYRGLGVSALCFKSRSRPGTLKAVTLAGSWRLLAVTDTGALYLYDVEVKCWEQLLEDKHFQSYCLLEAAPGPEGFGLCAMANGEGRVKVVPINTPTAAVDQTLFPGKVHSLSWALRGYEELLLLASGPGGVVACLEISAAPSGKAIFVKERCRYLLPPSKQRWHTCSAFLPPGDFLVCGDRRGSVLLFPSRPGLLKDPGVGGKARAGAGAPVVGSGSSGGGNAFTGLGPVSTLPSLHGKQGVTSVTCHGGYVYTTGRDGAYYQLFVRDGQLQPVLRQKSCRGMNWLAGLRIVPDGSMVILGFHANEFVVWNPRSHEKLHIVNCGGGHRSWAFSDTEAAMAFAYLKDGDVMLYRALGGCTRPHVILREGLHGREITCVKRVGTITLGPEYGVPSFMQPDDLEPGSEGPDLTDIVITCSEDTTVCVLALPTTTGSAHALTAVCNHISSVRAVAVWGIGTPGGPQDPQPGLTAHVVSAGGRAEMHCFSIMVTPDPSTPSRLACHVMHLSSHRLDEYWDRQRNRHRMVKVDPETRYMSLAVCELDQPGLGPLVAAACSDGAVRLFLLQDSGRILQLLAETFHHKRCVLKVHSFTHEAPNQRRRLLLCSAATDGSLAFWDLTTMLDHDSTVLEPPVDPGLPYRLGTPSLTLQAHSCGINSLHTLPTREGHHLVASGSEDGSLHVFVLAVEMLQLEEAVGEAGLVPQLRVLEEYSVPCAHAAHVTGLKILSPSIMVSASIDQRLTFWRLGHGEPTFMNSTVFHVPDVADMDCWPVSPEFGHRCALGGQGLEVYNWYD
B4: YWHAG (14-3-3 γ) (protein, UniProt P61981 1-247)
chain: MVDREQLVQKARLAEQAERYDDMAAAMKNVTELNEPLSNEERNLLSVAYKNVVGARRSSWRVISSIEQKTSADGNEKKIEMVRAYREKIEKELEAVCQDVLSLLDNYLIKNCSETQYESKVFYLKMKGDYYRYLAEVATGEKRATVVESSEKAYSEAHEISKEHMQPTHPIRLGLALNYSVFYYEIQNAPEQACHLAKTAFDDAIAELDTLNEDSYKDSTLIMQLLRDNLTLWTSDQQDDDGGEGNN
B5: SRPRB (protein, UniProt Q9Y5M8 1-271)
chain: MASADSRRVADGGGAGGTFQPYLDTLRQELQQTDPTLLSVVVAVLAVLLTLVFWKLIRSRRSSQRAVLLVGLCDSGKTLLFVRLLTGLYRDTQTSITDSCAVYRVNNNRGNSLTLIDLPGHESLRLQFLERFKSSARAIVFVVDSAAFQREVKDVAEFLYQVLIDSMGLKNTPSFLIACNKQDIAMAKSAKLIQQQLEKELNTLRVTRSAAPSTLDSSSTAPAQLGKKGKEFEFSQLPLKVEFLECSAKGGRGDVGSADIQDLEKWLAKIA
B6: MT-ATP8 (protein, UniProt P03928 1-68)
chain: MPQLNTTVWPTMITPMLLTLFLITQLKMLNTNYHLPPSPKPMKMKNYNKPWEPKWTKICSLHSLPPQS
B7: TMED9 (p24) (protein, UniProt Q9BVK6 38-235)
chain: LYFHIGETEKKCFIEEIPDETMVIGNYRTQLYDKQREEYQPATPGLGMFVEVKDPEDKVILARQYGSEGRFTFTSHTPGEHQICLHSNSTKFSLFAGGMLRVHLDIQVGEHANDYAEIAAKDKLSELQLRVRQLVEQVEQIQKEQNYQRWREERFRQTSESTNQRVLWWSILQTLILVAIGVWQMRHLKSFFEAKKLV

Results are given in words; binding and its absence hold for the method and conditions named. Binding seen in cells or lysates may run through a third protein. Here binding means that the protein was enriched with, or labelled near, the bait; the list need not be complete. Where a sequence is shown, tags or fusion partners need not be part of it.

The first experiment has as its target T1, human CaSR with FLAG-tag (FLAG-hCaSR) (human). Briefly: affinity purification with mass spectrometry; anti-FLAG M2 on Protein G Dynabeads, 1.0 mg cleared lysate (1% Triton X-100, 150 mM NaCl, Tris pH 7.4) of HEK293 cells transfected with FLAG-hCaSR or empty pcDNA3.1, 10 h at 4 °C; cells serum-starved, then treated with 4 mM Ca2+ or 2 mM EGTA for 2 h; on-bead digestion, LC-MS/MS, triplicates; hits at least twofold over the negative control, P ≤ 0.05.
Consider “ATP2A2/SERCA-2b (from UniProt P16615-1 1-1042)”, for which the binding result is listed as “binds”.

For “Tubulin α-1C (TUBA1C) (from UniProt Q9BQE3 1-449)”, the binding result is “binds”.

Turning to DNAJ1 (human (endogenous in HEK293)), the binding entry is on record as “binds”.

On to NDUFA4 (from UniProt O00483 1-81), for which the binding entry is on record as “binds”.

Consider UGGT1 (from UniProt Q9NYU2 43-1555), for which the binding entry is “binds”.

Take TIMM50 (from UniProt Q3ZCQ8 45-353): the binding entry is recorded as “binds”.

With “CANX (calnexin) (from UniProt P27824 21-592)”, the binding result is “binds”.

As for RAB18 (from UniProt Q9NP72 1-206), the binding result is “binds”.

As for ATP5A1 (from UniProt P25705 44-553), the binding entry is “binds”.

With “clathrin heavy chain (CLTC) (from UniProt Q00610 1-1675)”, the binding result was “binds”.

“78-kDa glucose regulated protein (GRP78), endogenous (from UniProt P11021 19-654)”: the binding result is “binds”.

Consider SKP1 (from UniProt P63208 1-163), for which the binding entry is “binds”.

As for RAB6 (human (endogenous in HEK293)), the binding result is reported as “binds”.

In the case of RALBP1 (from UniProt Q15311 1-655), the binding result is “binds”.

Consider “YWHAZ (14-3-3 ζ) (from UniProt P63104 1-245)”, for which the binding result is recorded as “binds”.

“YWHAE (14-3-3 ε) (from UniProt P62258 1-255)”: the binding entry is “binds”.

With PDIA3 (from UniProt P30101 25-505), the binding entry is listed as “binds”.

As for HSPD1 (from UniProt P10809 27-573), the binding result is “binds”.

As for HBB (from UniProt P68871 1-147), the binding entry is reported as “binds”.

Take RAB5c (from UniProt P51148 1-216): the binding entry is recorded as “binds”.

With GRP94 (from UniProt P14625 22-803), the binding result was “binds”.

With HSP90AA1 (from UniProt P07900 1-732), the binding entry is listed as “binds”.

Consider RANBP2 (from UniProt P49792 1-3224), for which the binding result is on record as “binds”.

For STUB1 (from UniProt Q9UNE7 1-303), the binding result is “binds”.

Take VAPB (from UniProt O95292 1-243): the binding entry is reported as “binds”.

For a further experiment the target is unchanged. The experiment is described as above. This is another data set of the same source.
With B1, the binding entry was “binds”.

As for B2, the binding result was “binds”.

As to B3, the binding result is given as “binds”.

With B4, the binding result was “binds”.

In the case of B5, the binding entry is recorded as “binds”.

For B6, the binding result was “binds”.

Consider B7, for which the binding result was “binds”.
